Assay results reported in PubChem BioAssay AID2551 (National Center for Advancing Translational Sciences (NCATS), 2010).
The whole screen tested about 310,000 compounds, of which about 17,000 (5.5%) were called active. The shares of active, inactive and inconclusive entries below differ from those in the screen. The call rests on the fitted dose curve; in most records, active means well fitted inhibition curve with a large enough effect; inconclusive means small, poorly fitted or top-dose-only effect, or effect the other way; inactive means no such curve, though single readings can be large or run the other way. A potency beside an inconclusive call is a rough fit, not a confirmed value.

Amino acid sequences for entries named in this document (tags omitted). A change or cut given only in a name is not applied to a line headed by its entry.
UniProt P51450: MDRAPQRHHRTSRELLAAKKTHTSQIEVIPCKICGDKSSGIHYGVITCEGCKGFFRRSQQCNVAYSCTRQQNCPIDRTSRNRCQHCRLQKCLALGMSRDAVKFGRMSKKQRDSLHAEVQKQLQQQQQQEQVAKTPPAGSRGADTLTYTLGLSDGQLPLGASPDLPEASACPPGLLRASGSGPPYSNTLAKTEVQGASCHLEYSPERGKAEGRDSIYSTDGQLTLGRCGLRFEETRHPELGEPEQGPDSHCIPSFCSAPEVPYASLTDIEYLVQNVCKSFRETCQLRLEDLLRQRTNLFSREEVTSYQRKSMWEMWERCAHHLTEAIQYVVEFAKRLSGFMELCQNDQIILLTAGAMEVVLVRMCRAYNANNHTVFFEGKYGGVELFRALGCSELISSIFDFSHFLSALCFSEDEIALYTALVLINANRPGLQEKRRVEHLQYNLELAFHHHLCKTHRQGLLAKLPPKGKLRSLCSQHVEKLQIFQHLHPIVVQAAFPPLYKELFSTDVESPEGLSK

What follows are compounds tested against Nuclear receptor ROR-gamma (Mus musculus) (UniProt P51450) (assay: qHTS for inhibitors of ROR gamma transcriptional activity). Settings: Drosophila S2 Gal4-RORgamma UAS-luciferase reporter, 20 h; series mostly up to 53.6 µM.
Outline: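 Read-out: Photinus luciferase luminescence; inhibitors lower reporter signal. Insect Schneider cells with Gal4-ROR gamma fusion under metallothionein promoter, UAS reporter; 700 uM final copper sulfate induction, 20 hr, ambient temperature.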
Further: nearly all actives have a fitted effect of over 60% in size.
Potency means the concentration at half of the fitted maximal effect.

For `Cc1nonc1CC(=O)NC1CC(C)(C)Cc2c1cnn2-c1ccc(F)cc1` (configuration not stated), which Potency is on record?
Its Potency is inconclusive: 7.08 µM [activator, partial curve].

Which Potency does the source give for `COCCCNC(=O)C(C#N)c1nc2ccccc2nc1N1CCN(Cc2ccccc2)CC1` (configuration not stated) here?
The Potency was “inactive”.

With `CCc1ccc2nc3sc(C(=O)Nc4nnc(CC)s4)c(N)c3cc2c1` as the compound, how does the Potency read?
Its Potency is inconclusive: 35.5 µM [inhibitor, single point].

Which Potency does the source give for `O=C(N/N=C/C(Br)=C/c1ccccc1)NC1CCCCC1` here?
The Potency was inconclusive: 35.5 µM [inhibitor, single point].

With `COc1ccc2c(c1)O/C(=C\c1ccco1)C2=O` as the compound, how does the Potency read?
Its Potency is “inactive”.

Which Potency does the source give for `CCOC(=O)C(CC)(CC)C(=O)/C=C/c1ccc(Br)cc1` here?
Its Potency is inconclusive: 35.5 µM [inhibitor, single point].

Which Potency does the source give for `CN1c2ccccc2C(C)(C)C12C=Nc1c(ccc3ccccc13)O2` (configuration not stated) here?
Its Potency is inconclusive: 15.8 µM [inhibitor, single point].

Which Potency does the source give for `Cc1cccc(NC(=S)N2CCCN(c3ncccc3[N+](=O)[O-])CC2)c1` here?
The Potency was inconclusive: 11.2 µM [inhibitor, partial curve, poor fit].

`COCCN(C(=S)Nc1c(C)cccc1C)C(C)c1ccco1` (configuration not stated) was tested. Which Potency did it give?
The Potency was inconclusive: 35.5 µM [inhibitor, single point].

With `N#C/C(=C\c1ccccc1[N+](=O)[O-])C(=O)NCc1ccccc1` as the compound, how does the Potency read?
The Potency was inconclusive: 35.5 µM [inhibitor, single point].

Which Potency does the source give for `O=C(CN1CCN(c2ccc(F)cc2)CC1)Nc1ccccc1` here?
The Potency was “inactive”.

For `O=S(=O)(O)c1cc(O)c2c(N=Nc3ccc(Nc4ccccc4)c4c(S(=O)(=O)O)cccc34)cc(S(=O)(=O)O)cc2c1`, which Potency is on record?
The Potency was inconclusive: 15.8 µM [inhibitor, partial curve, poor fit].

Which Potency does the source give for `COCCOC(=O)c1[nH]c2c(c1C)C(=O)CC(c1ccccc1)C2` (configuration not stated) here?
The Potency was inconclusive: 20 µM [activator, single point].

With `Nc1ccc(C(=O)N/N=C2\CCCc3c2[nH]c2ccccc32)cc1` as the compound, how does the Potency read?
The Potency was inconclusive: 14.1 µM [inhibitor, single point].

With `c1ccc(-c2cc(-c3nnc4n3N=C(c3ccc5ccccc5c3)CS4)[nH]n2)cc1` as the compound, how does the Potency read?
Its Potency is inconclusive: 2.51 µM [inhibitor, single point].

How did the Potency turn out when `FC(F)Oc1ccc(NC(=S)NN2CCOCC2)cc1` was run?
The Potency was “inactive”.

`COc1ccc(-c2cc(C(=O)Nc3ccc(C)c(N)c3)c3ccccc3n2)cc1` was tested. Which Potency did it give?
Its Potency is inconclusive: 22.4 µM [activator, single point].

How did the Potency turn out when `Cc1ccc(CNC(=O)C2CCC(=O)N(Cc3ccc(Cl)cc3)C2)cc1F` (configuration not stated) was run?
Its Potency is “inactive”.

`Nc1cccc(CCc2nc3cc4ccccc4cc3[nH]2)c1` was tested. Which Potency did it give?
The Potency was inconclusive: 0.562 µM [activator, full curve].

How did the Potency turn out when `Cn1c(SCc2cccc(C#N)c2)nc2ccccc2c1=O` was run?
The Potency was inconclusive: 15.8 µM [activator, single point].

With `COc1ccc(NS(=O)(=O)c2ccc(NC(=O)c3ccc(CN4CCOCC4)cc3)cc2)cc1` as the compound, how does the Potency read?
The Potency was active: 14.1 µM.

`Cc1ccc(S(N)(=O)=O)cc1NC(=O)c1ccc2c3c(cccc13)CC2` was tested. Which Potency did it give?
Its Potency is inconclusive: 0.316 µM [activator, partial curve, poor fit].

With `O=C(COc1ccc(S(=O)(=O)N2CCOCC2)cc1)Nc1cccc([N+](=O)[O-])c1` as the compound, how does the Potency read?
The Potency was inconclusive: 35.5 µM [activator, single point].

How did the Potency turn out when `CCOC(=O)c1ccc(Nc2cc(C)nc3nc(C)nn23)cc1` was run?
The Potency was inconclusive: 11.2 µM [activator, partial curve].

With `Cc1cccc(C)c1NS(=O)(=O)c1ccc(-c2cnc(C3CC3)o2)cc1` as the compound, how does the Potency read?
Its Potency is inconclusive: 31.6 µM [activator, single point].

For `Cc1nc(CC(=O)Nc2nccs2)cs1`, which Potency is on record?
The Potency was “inactive”.

Which Potency does the source give for `O=C(NC(NC(=O)c1ccccc1)C(=O)c1ccccc1)c1ccccc1` here?
The Potency was inconclusive: 25.1 µM [inhibitor, single point].

`O=C(N/N=C/c1ccccc1)c1[nH]c2ccc(Br)cc2c1-c1ccccc1` was tested. Which Potency did it give?
Its Potency is inconclusive: 15.8 µM [inhibitor, single point].

`COc1ccc(OC)c(-c2cc(C(=O)Nc3cccc(Cl)c3)no2)c1` was tested. Which Potency did it give?
Its Potency is “inactive”.

How did the Potency turn out when `CC(=O)NC1=NC(=O)/C(=C/c2cc(C)n(-c3ccc(NC(C)=O)cc3)c2C)S1` was run?
Its Potency is inconclusive: 35.5 µM [inhibitor, single point].

For `CC(=O)N1CCc2cc(S(=O)(=O)NCCC(=O)Nc3cccc(C)c3)ccc21`, which Potency is on record?
The Potency was “inactive”.

`O=C(O)c1cc(Br)ccc1NS(=O)(=O)c1cccc2nsnc12` was tested. Which Potency did it give?
Its Potency is “inactive”.

With `CN(Cc1ccccc1)c1nc2c(c(=O)[nH]c(=O)n2C)n1CCCc1ccccc1` as the compound, how does the Potency read?
Its Potency is inconclusive: 35.5 µM [activator, single point].

With `Cc1cccc(C)c1Nc1c(-c2ccccn2)nc2ccccn12` as the compound, how does the Potency read?
The Potency was active: 11.2 µM.

`COc1cccc(C2=NOC(C(=O)N3CCc4ccccc4C3)C2)c1` (configuration not stated) was tested. Which Potency did it give?
Its Potency is inconclusive: 11.2 µM [activator, single point].

How did the Potency turn out when `Cn1nnnc1SCc1csc(Nc2ccccc2)n1` was run?
Its Potency is inconclusive: 35.5 µM [inhibitor, single point].

With `COc1ccc(NC(=O)N2CCC(n3cnc4ccccc43)CC2)cc1` as the compound, how does the Potency read?
The Potency was “inactive”.

How did the Potency turn out when `CC(=O)C(Sc1ccc2nnc(-c3ccc(F)cc3)n2n1)C(C)=O` was run?
The Potency was inconclusive: 28.2 µM [inhibitor, single point].

For `CCC(NC(=O)CCc1c(C)c2cc3c4c(oc3cc2oc1=O)CCCC4)C(=O)O` (configuration not stated), which Potency is on record?
Its Potency is inconclusive: 1.26 µM [inhibitor, full curve].

Which Potency does the source give for `Cc1nc2nc(NC(=O)c3ccco3)nn2c(C)c1Cl` here?
Its Potency is inconclusive: 35.5 µM [inhibitor, single point].

With `CCc1cc(C(c2ccccn2)N2CCN(C)CC2)c(NC(=O)c2ccccc2)s1` (configuration not stated) as the compound, how does the Potency read?
Its Potency is inconclusive: 35.5 µM [activator, single point].

Which Potency does the source give for `O=C(CSc1nnc(COc2ccccc2)n1-c1ccccc1)c1cccs1` here?
The Potency was inconclusive: 35.5 µM [inhibitor, single point].

`Cc1cc(NC(=O)Nc2ccccc2)n(-c2ccccc2)n1` was tested. Which Potency did it give?
Its Potency is inconclusive: 17.8 µM [activator, single point].

With `COc1cc(C(Nc2ccccn2)c2c(NC(=O)c3ccco3)sc(C)c2C)cc(OC)c1OC` (configuration not stated) as the compound, how does the Potency read?
The Potency was inconclusive: 14.1 µM [activator, partial curve].

With `COc1ccc(-c2cc(C(=O)NC3CCCC3)c3ccccc3n2)cc1` as the compound, how does the Potency read?
The Potency was inconclusive: 14.1 µM [activator, partial curve].

For `CCOc1ccccc1N1CN(C2CCCCC2)CNC1=S`, which Potency is on record?
Its Potency is active: 3.16 µM.

`N/C(=N\OC(=O)c1ccc(Cl)cc1)c1[nH]ncc1Br` was tested. Which Potency did it give?
Its Potency is inconclusive: 10 µM [inhibitor, partial curve].

`CC(C)(C)NC(=O)CSc1nc2[nH]ncc2c(=O)[nH]1` was tested. Which Potency did it give?
The Potency was “inactive”.

For `COc1ccc(Cl)cc1NC(=S)Nc1ccccc1F`, which Potency is on record?
Its Potency is inconclusive: 22.4 µM [inhibitor, single point].

`CC1CCCC(C)N1C(=O)c1cc(-c2ccc3c(c2)OCO3)on1` (configuration not stated) was tested. Which Potency did it give?
Its Potency is “inactive”.

`CCNc1nc(NC(C)C)nc(OCCOC(=O)Nc2ccccc2)n1` was tested. Which Potency did it give?
The Potency was inconclusive: 11.2 µM [activator, partial curve].

`C1CCN(c2nc3nonc3nc2NCC2CCOCC2)CC1` was tested. Which Potency did it give?
The Potency was inconclusive: 11.2 µM [inhibitor, partial curve].

With `O=C(Cn1ncc2c3ccccc3n(Cc3cccc(Cl)c3)c2c1=O)NCc1ccccn1` as the compound, how does the Potency read?
The Potency was inconclusive: 12.6 µM [inhibitor, single point].

`O=C(CSc1nc2ccccc2s1)NNC(=S)Nc1ccccc1` was tested. Which Potency did it give?
The Potency was active: 1 µM.

`COc1ccc(NC(=O)C2CCCN(c3c4c(nc5ncnn35)CCC4)C2)cc1OC` (configuration not stated) was tested. Which Potency did it give?
The Potency was “inactive”.

`CCS(=O)(=O)c1ncc(Cl)c(C(=O)Nc2ccccc2OC)n1` was tested. Which Potency did it give?
The Potency was inconclusive: 1.26 µM [inhibitor, single point].

With `CCOc1ccc(OCC)c(NC(=O)C2CCCN2S(=O)(=O)c2cccc3cccnc23)c1` (configuration not stated) as the compound, how does the Potency read?
Its Potency is inconclusive: 5.62 µM [inhibitor, full curve, poor fit].

Which Potency does the source give for `O=C(c1ccccc1Cc1ccccc1)N1CCN(S(=O)(=O)c2ccccc2)CC1` here?
The Potency was “inactive”.

`COc1ccc2[nH]cc(CCNc3ncncc3-c3cccc(C#N)c3)c2c1` was tested. Which Potency did it give?
Its Potency is inconclusive: 17.8 µM [activator, partial curve].

Which Potency does the source give for `O=C(Nc1ccc(Oc2cccnc2)cc1)c1ccccc1Cl` here?
The Potency was inconclusive: 10 µM [activator, partial curve].

`Cc1cnn(CCC(=O)NNC(=S)Nc2cccc(Cl)c2)c1` was tested. Which Potency did it give?
The Potency was active: 0.355 µM.

`Cc1nnc(SCc2cccc3ccccc23)s1` was tested. Which Potency did it give?
The Potency was “inactive”.

Which Potency does the source give for `CCn1c(C(C)NC(=O)c2ccc(C)cc2)n[nH]c1=S` (configuration not stated) here?
Its Potency is “inactive”.

With `COc1cc(CNC(=O)C2CC2)ccc1OCc1ccccc1` as the compound, how does the Potency read?
The Potency was active: 31.6 µM.

How did the Potency turn out when `c1cc(CNc2ccc(N3CCOCC3)cc2)ccn1` was run?
The Potency was inconclusive: 25.1 µM [inhibitor, single point].

For `CCOC(=O)CSc1ncnc2c1cnn2-c1ccc(C)cc1`, which Potency is on record?
The Potency was inconclusive: 35.5 µM [inhibitor, partial curve, poor fit].

For `Cc1c(F)cccc1NS(=O)(=O)c1ccc2c(c1)c(=O)n(C)c(=O)n2C`, which Potency is on record?
The Potency was “inactive”.

`O=C(CSc1ncnc2c1nnn2-c1ccc(F)cc1)NCc1ccco1` was tested. Which Potency did it give?
The Potency was inconclusive: 35.5 µM [activator, single point].

For `CNC(=S)Nc1cc(C)ccc1OC(F)F`, which Potency is on record?
Its Potency is inconclusive: 11.2 µM [inhibitor, partial curve].

Which Potency does the source give for `CCCCCC1=C2CNC(CC(C)C)(C(=O)OC)C=C2C(C)C1=O` (configuration not stated) here?
Its Potency is “inactive”.

How did the Potency turn out when `O=C(c1cc(-c2cccnc2)nc2ccccc12)N1CCCc2ccccc21` was run?
The Potency was “inactive”.

With `COc1cccc(/C=N/Nc2ncnc(Cl)c2N)c1O` as the compound, how does the Potency read?
Its Potency is active: 1.78 µM.
